Test results as given in patent publication US20200215065A1, “COMPOSITIONS AND METHOD FOR TREATING PULMONARY HYPERTENSION” (THE REGENTS OF THE UNIVERSITY OF COLORADO, a body corporate, priority 2017, published 2020).
At least one compound was matched to its structure with a doubt left.

Tested on: hypoxic pulmonary vasoconstriction (HPV) response
Test: Acute hypoxic rat model: pulmonary (PAP) and systemic (MAP) arterial pressure after treatment
Format: in vivo
Experimental: Surgical procedures and hemodynamic measurements: Rats were anesthetized by intramuscular injection with ketamine/xylazine mixture (75 and 6 mg/kg, respectively). The ventral neck was shaved and a 2 cm incision was made in the right ventral neck where the jugular vein and right carotid artery were isolated via blunt dissection. A polyethylene (PE-50) catheter was introduced into the right carotid to measure systemic blood pressure. A polyvinyl (PV-1) catheter was inserted into the jugular vein and threaded through the right atrium, right ventricle, and into the lumen of the main pulmonary artery to obtain pulmonary arterial pressure. Fluid filled catheters were connected to pressure transducers and monitored continuously with the MP150 data acquisition system (BioPAC Systems; Goleta, Calif.). Blood pressures were recorded every two minutes for data analysis.
After completion of catheter placements and instrumentation for hemodynamic measurements, a 1 cm incision was made above the trachea, and the trachea was isolated by blunt dissection. […]
Testing efficacy of intrapulmonary delivery of ambrisentan: following instrumentation and tracheotomy, anesthetized rats were placed in a specially designed Plexiglas box built to accommodate exteriorized catheters for completion of the study protocol (depicted graphically in FIG. 1B). Baseline PAP and mean systemic arterial pressure (MAP) were recorded. […] Following the second hypoxic challenge, rats returned to breathing room air and blood pressures were monitored for 15 minutes before animals were euthanized with intravenous injection of a euthanasia agent. […]
This study was conducted to test the use and efficacy of a water-in-fluorocarbon emulsion of this disclosure to encapsulate ambrisentan or sodium nitrite for intrapulmonary drug delivery. An acute hypoxic rat model was used, and pulmonary and systemic arterial pressure were recorded to determine efficacy of the drug delivery system for treatment of the acute hypoxic pulmonary vasoconstrictive response. […]

COC(c1ccccc1)(c1ccccc1)[C@H](Oc1nc(C)cc(C)n1)C(=O)O [ambrisentan]
rise in PAP during the second hypoxic challenge (13% O2, intrapulmonary delivery, regardless of delivery vehicle, compared to saline or empty emulsion): significantly reduced | PAP response of intrapulmonary delivery compared with intravenous infusion (acute hypoxia, intrapulmonary emulsion vs IV ambrisentan): not significantly different | mean pulmonary arterial pressure when exposed to acute hypoxia (intrapulmonary emulsion, all doses (5, 0.5, 0.1 mg/kg)): significantly reduced
